Patent US11629201B2, “PSMA-binding agents and uses thereof” (ITM Isotope Technologies Munich SE, priority 2017, dated 2023)
Some results were stated once for a whole list of compounds, not compound by compound.

System: human plasma proteins
Assay: Ultrafiltration assay, binding to human plasma proteins

Cc1ccc(CCCC(=O)NCCCCC(NC(=O)CN2CCN(CC(=O)O)CCN(CC(=O)O)CCN(CC(=O)O)CC2)C(=O)NCC2CCC(C(=O)NC(Cc3ccc4ccccc4c3)C(=O)NCCCCC(NC(=O)NC(CCC(=O)O)C(=O)O)C(=O)O)CC2)cc1 (stereo not shown) [^177Lu-PSMA-ALB-06, metal not drawn]
plasma protein-bound fraction: > 94%
